PubChem BioAssay AID504784 | Drosophila RNAi Screening Center | 2011
Assay: 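Fly genes whose silencing alters how much lipid cells keep in droplets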 (primary screen). Cell system: Drosophila Kc167 embryonic cells. Reagents: long dsRNA against Drosophila genes, about 250 ng dsRNA per well. Duration: 4 days. Treatment: cells fed 400 µM oleic acid bound to BSA. Read-out: 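Cells imaged and segmented; ratio of lipid droplet area to nuclear area, log-transformed, then normalised as a B-score over the screen; higher means more stored lipid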. Scale: droplet/nuclear area B-score: higher = more stored lipid (overstorage).
The deposit covers about 17,000 reagents; shown is an unselected part of those with a known target gene and a result. 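Each column is one replicate's B-score; the combined score over replicates was not deposited, so single values may mislead.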 A plus sign joins genes that one reagent is predicted to hit. Further read-outs or replicates are left out here.

Knock-down of CG15734 [DRSC19701] resulted in: droplet/nuclear area B-score, replicate 1 = -0.00562. Against bsh [DRSC03498] the deposit lists droplet/nuclear area B-score, replicate 1 = -1.73. With knock-down of CG1116 [DRSC12166] the results were droplet/nuclear area B-score, replicate 1 = -0.823. After knock-down of Cyp12d1-d + Cyp12d1-p [DRSC21507] the results were droplet/nuclear area B-score, replicate 1 = 1.23. Depletion of Kah [DRSC07887] gave: droplet/nuclear area B-score, replicate 1 = 0.143. Against Kah [DRSC08515], the values are droplet/nuclear area B-score, replicate 1 = -0.0946.

Knock-down of bigmax [DRSC15481] resulted in: droplet/nuclear area B-score, replicate 1 = -0.00751. Tdh [DRSC11788] scored droplet/nuclear area B-score, replicate 1 = 2.54.

A stretch of the results above, as a working copy:
bigmax [DRSC15481] — droplet/nuclear area B-score, replicate 1 = -0.00751
Tdh [DRSC11788] — droplet/nuclear area B-score, replicate 1 = 2.54

The listing continues:
Silencing of Alh [DRSC12447] came out at: droplet/nuclear area B-score, replicate 1 = -1.34. With knock-down of Alh [DRSC12487], the record shows droplet/nuclear area B-score, replicate 1 = -1.46. For Alh [DRSC12488], the entry reads droplet/nuclear area B-score, replicate 1 = 0.101. Silencing of witty [DRSC02378] gave: droplet/nuclear area B-score, replicate 1 = -0.631. For witty [DRSC21650], the entry reads droplet/nuclear area B-score, replicate 1 = -0.903. Silencing of CG32834 [DRSC21929] resulted in: droplet/nuclear area B-score, replicate 1 = -0.0753.

ab [DRSC03478] gave droplet/nuclear area B-score, replicate 1 = 0.768. ab [DRSC23179] gave droplet/nuclear area B-score, replicate 1 = 2.24.
